Assay results as given in the supplement of paper PMC6078165.
The reference is the same well before dosing, and untreated signal decays as well.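 Fibroblast labels name human fibroblasts: mostly primary ones from tissues such as uterus (C12385, HUF), lung (H6013), bone (Hs27A), adrenal (HADF) and skin (WS1), plus mammary HMF and breast cancer-associated Hs343T. The cancer cells are basal-like or mesenchymal-like triple-negative breast cancer lines. The paper calls a changed response a hit when it shifts by more than 3x the replicate standard deviation. The tissue of the other fibroblasts is not given here.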

System: HCC1143
Assay: relative JC-1 red fluorescence (viability) vs pre-drug, coculture with fibroblast (fraction); higher = more viable cancer cells
Description: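 JC-1 labelled TNBC cells cocultured 1:1 (1,500 cells each) with CellTrace Violet stained primary or stromal fibroblasts in 384-well plates in FluoroBrite medium, treated with one of 42 anticancer drugs at 0.1, 1, 10 or 100 uM. JC-1 red fluorescence (mitochondrial integrity in cancer cells only) was read by plate reader every 8 h for 72 h. Values are normalised to each well's pre-drug value. The stock of one drug was tenfold lower, so its dose labels may be too high.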

C[C@]12CC[C@@H]3c4ccc(O)cc4C[C@@H](CCCCCCCCC[S+]([O-])CCCC(F)(F)C(F)(F)F)[C@H]3[C@@H]1CC[C@@H]2O (stereo partly drawn) [Fulvestrant]
relative JC-1 red fluorescence
Details | 8 h | 16 h | 24 h | 32 h | 40 h | 48 h | 56 h | 64 h | 72 h
10 µM, coculture fibroblast: C12385 | 0.873 | 0.8236 | 0.7357 | 0.661 | 0.601 | 0.56 | 0.528 | 0.491 | 0.464
10 µM, coculture fibroblast: H6013 | 0.782 | 0.707 | 0.663 | 0.665 | 0.572 | 0.556 | 0.538 | 0.529 | 0.579
10 µM, coculture fibroblast: H6019 | 0.877 | 0.8131 | 0.764 | 0.718 | 0.694 | 0.679 | 0.634 | 0.588 | 0.553
10 µM, coculture fibroblast: H6076 | 0.8107 | 0.8872 | 0.816 | 0.733 | 0.723 | 0.711 | 0.686 | 0.678 | 0.694
10 µM, coculture fibroblast: H6231 | 0.837 | 0.951 | 0.897 | 0.675 | 0.7788 | 0.738 | 0.7378 | 0.7736 | 0.79249
10 µM, coculture fibroblast: HADF | 0.812 | 0.778 | 0.755 | 0.787 | 0.68 | 0.665 | 0.641 | 0.634 | 0.718
10 µM, coculture fibroblast: HCFa | 0.8252 | 0.753 | 0.717 | 0.731 | 0.6163 | 0.5847 | 0.5598 | 0.5503 | 0.627
10 µM, coculture fibroblast: HCPF | 0.829 | 0.933 | 0.904 | 0.7207 | 0.8066 | 0.7892 | 0.801 | 0.828 | 0.83
10 µM, coculture fibroblast: HHSteC | 0.868 | 0.801 | 0.754 | 0.731 | 0.628 | 0.5948 | 0.562 | 0.543 | 0.567
10 µM, coculture fibroblast: HMF | 0.831 | 0.902 | 0.838 | 0.745 | 0.784 | 0.766 | 0.749 | 0.745 | 0.752
10 µM, coculture fibroblast: HPFa | 0.961 | 0.924 | 0.825 | 0.752 | 0.681 | 0.665 | 0.614 | 0.573 | 0.551
10 µM, coculture fibroblast: HUF | 0.923 | 0.882 | 0.832 | 0.736 | 0.702 | 0.673 | 0.635 | 0.61 | 0.59
10 µM, coculture fibroblast: Hs5 | 0.835 | 0.9437 | 0.8767 | 0.8036 | 0.772 | 0.7345 | 0.7157 | 0.717 | 0.71227
10 µM, coculture fibroblast: Hs27A | 0.82 | 0.786 | 0.744 | 0.791 | 0.642 | 0.635 | 0.609 | 0.598 | 0.73
10 µM, coculture fibroblast: Hs343T | 0.812 | 0.892 | 0.815 | 0.705 | 0.733 | 0.711 | 0.6746 | 0.6799 | 0.6698
10 µM, coculture fibroblast: WS1 | 0.8717 | 0.808 | 0.73 | 0.657 | 0.611 | 0.571 | 0.531 | 0.495 | 0.47
100 µM, coculture fibroblast: C12385 | 0.8925 | 0.853 | 0.797 | 0.749 | 0.717 | 0.707 | 0.685 | 0.688 | 0.674
100 µM, coculture fibroblast: H6013 | 0.764 | 0.697 | 0.666 | 0.666 | 0.572 | 0.562 | 0.54 | 0.532 | 0.58
100 µM, coculture fibroblast: H6019 | 0.908 | 0.8463 | 0.8199 | 0.779 | 0.768 | 0.772 | 0.75 | 0.73 | 0.719
100 µM, coculture fibroblast: H6076 | 0.892 | 0.9337 | 0.946 | 0.901 | 0.907 | 0.821 | 0.872 | 0.843 | 0.9136
100 µM, coculture fibroblast: H6231 | 0.964 | 0.724 | 0.744 | 0.853 | 0.806 | 0.917 | 0.889 | 0.801 | 0.805
100 µM, coculture fibroblast: HADF | 0.82 | 0.768 | 0.758 | 0.804 | 0.697 | 0.682 | 0.674 | 0.661 | 0.77
100 µM, coculture fibroblast: HCFa | 0.821 | 0.74 | 0.7 | 0.703 | 0.588 | 0.561 | 0.527 | 0.498 | 0.522
100 µM, coculture fibroblast: HCPF | 0.908 | 0.871 | 0.9229 | 0.838 | 0.833 | 0.881 | 0.912 | 0.908 | 0.888
100 µM, coculture fibroblast: HHSteC | 0.8397 | 0.7944 | 0.7689 | 0.75 | 0.673 | 0.657 | 0.628 | 0.614 | 0.608
100 µM, coculture fibroblast: HMF | 0.8767 | 0.931 | 0.952 | 0.8187 | 0.897 | 0.886 | 0.878 | 0.888 | 0.906
100 µM, coculture fibroblast: HPFa | 0.965 | 0.904 | 0.874 | 0.813 | 0.774 | 0.774 | 0.749 | 0.738 | 0.731
100 µM, coculture fibroblast: HUF | 0.956 | 0.9 | 0.871 | 0.806 | 0.79 | 0.776 | 0.758 | 0.747 | 0.736
100 µM, coculture fibroblast: Hs5 | 0.866 | 0.926 | 0.894 | 0.835 | 0.803 | 0.786 | 0.775 | 0.78 | 0.769
100 µM, coculture fibroblast: Hs27A | 0.805 | 0.757 | 0.72389 | 0.7857 | 0.635 | 0.629 | 0.612 | 0.605 | 0.722
100 µM, coculture fibroblast: Hs343T | 0.8838 | 0.94497 | 0.9105 | 0.825 | 0.859 | 0.85 | 0.841 | 0.866 | 0.856
100 µM, coculture fibroblast: WS1 | 0.91 | 0.875 | 0.856 | 0.808 | 0.791 | 0.773 | 0.773 | 0.779 | 0.785
